According to PubChem BioAssay AID2685 (National Center for Advancing Translational Sciences (NCATS), 2010):
Some of the results follow. These are further read-outs of the screen, such as a control signal, another cell line or another target. No call is given for them. Compounds called inactive in the main read-out are mostly missing here. The note in brackets gives the kind of curve behind each potency; many fits are weak.

Assay: qHTS Assay for Lipid Storage Modulators in Drosophila S3 Cells;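 for cell number change: cells counted by Cell Tracker Red CMTPX staining in the red channel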
Details: BODIPY lipid droplet fluorescence, 18-24 h; for cell number change: measured here: cell count max response, cells fed with added oleic acid
Summary of the method: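 Laser-scanning cytometry quantifies lipid droplet accumulation (500–530 nm total intensity; droplet/cell object ratio) in oleic acid-fed (400 uM added) Drosophila S3 cells treated with a concentration series. 20 uM Triacsin C defined 100% inhibition.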

[1] = measured here: lipid fluorescence (Fed channel) AC50, cells fed with added oleic acid
[2] = measured here: cell number channel AC50, cells fed with added oleic acid

SMILES	cell number change [%]	AC50 [1]	AC50 [2]
COc1cc(OC)cc(C2=NCCN2)c1	0.159		
COc1ccc(NC(=O)c2ccccc2[N+](=O)[O-])cc1OC	-3.66	29.1 µM [falling, single point]	
COc1ccc(C(CNC(=O)COc2ccccc2C)N2CCCC2)cc1 (stereo not given)	-1.38		
CCOC(=O)[C@H]1[C@H]2COc3ccc(C)cc3[C@@H]2N2C(=O)CN(Cc3ccc(F)cc3)C(=O)[C@@]12C	3.69	0.206 µM [rising, full curve, poor fit]	
COc1cccc(OCc2cc(C(=O)N3CCCC3c3ccccn3)no2)c1 (stereo not given)	8.21	0.103 µM [falling, full curve, poor fit]	
CCCc1nn2c(=O)cc(CSCC(=O)Nc3cccc(C)c3)nc2s1		0.517 µM [falling, single point]	
CCCNC(=O)CCn1nc(-c2ccc(Cl)cc2)c2ccccc2c1=O	18.6	4.61 µM [rising, full curve]	
Cc1nnc(SCCn2c(Br)nc3c2c(=O)n(C)c(=O)n3C)s1	31		29.1 µM [rising, single point]
C=Cn1cc[n+](CC(=O)c2ccc(Cl)cc2)c1	14.1	29.1 µM [rising, single point]	
COc1ccc(C(CNC(=O)c2cccc(S(=O)(=O)N3CCCC(C)C3)c2)N(C)C)cc1 (stereo not given)	-6.59	0.184 µM [rising, full curve, poor fit]	
COc1cc(/C=N/NC(=O)c2ccncc2)ccc1OCC(=O)Nc1ccc(C)c(C)c1	15.4		
CCOC(=O)c1ccccc1NC(=O)COC(=O)c1ccc(C)c(S(=O)(=O)N2CCOCC2)c1	-61.5		11.6 µM [falling, partial curve]
CC(/C=N/N1CCN(Cc2ccccc2)CC1)=C\c1ccccc1	-19.4	29.1 µM [falling, single point]	
Cc1cccc(S(=O)(=O)Nc2nc3ccccc3nc2Nc2ccc3c(c2)OCO3)c1	25.5	0.00461 µM [rising, full curve, poor fit]	0.058 µM [rising, full curve, poor fit]
COc1cccc(S(=O)(=O)Nc2ccc(C(=O)N3CCN(C(=O)c4ccco4)CC3)cc2)c1	-32	9.2 µM [falling, partial curve]	7.31 µM [falling, full curve, poor fit]
Cc1ccc(NC(=O)C2CCCN(S(=O)(=O)c3ccc(-n4cnnn4)cc3)C2)cc1 (stereo not given)	135		29.1 µM [rising, partial curve]
O=C(Nc1ccc(N2CCCC2)cc1)c1cc(Cl)ccc1Cl	-17		
COc1ccc(C(C)(C)C)cc1NC(=O)c1cc(S(=O)(=O)N(C)C)ccc1N1CCCC1		14.6 µM [falling, partial curve]	

SMILES	cell number change [%]	AC50 [1]	AC50 [2]
COc1ccc(NC(=O)C2CCN(C(=O)c3ccco3)CC2)c(OC)c1	-3.36	6.51 µM [rising, single point]	
CC(C)c1ccc(NC(=O)c2cccc(NC3=NC4CS(=O)(=O)CC4S3)c2)cc1 (stereo not given)	-8.36	29.1 µM [falling, single point]	
Cc1ccc(C(=O)Nc2scc(-c3ccccc3)c2C(=O)O)o1	20.6	0.517 µM [falling, full curve]	6.51 µM [rising, single point]
Cn1cccc1Cc1nnc(SCC(=O)Nc2ccc3c(c2)OCO3)n1-c1ccc(F)cc1	-2.99		
Cc1ccc(OCCC(=O)OCC(=O)Nc2cc(C)nn2-c2ccccc2)cc1	67.8	29.1 µM [rising, single point]	9.2 µM [rising, partial curve]
O=C(OCCn1cncn1)c1cc2ccccc2oc1=O	-22.9	29.1 µM [falling, single point]	
COc1ccc(C(=O)NNC(=O)Nc2ccc(Cl)cc2)cc1		0.651 µM [rising, full curve]	0.731 µM [rising, partial curve]
CC1(C)CC(=O)C(C2C3=C(CC(C)(C)CC3=O)Oc3c(Br)cc(Br)cc32)=C(O)C1 (stereo not given)	-2.07	29.1 µM [falling, single point]	0.146 µM [rising, full curve, poor fit]
CN1/C(=C\C=C2/SC(=S)NC2=O)C(C)(C)c2ccccc21	-97.9	29.1 µM [falling, partial curve, poor fit]	8.2 µM [falling, partial curve]
CCCC(=O)N(CCN1CCOCC1)c1nc2c(OC)ccc(C)c2s1	-65.7	18.4 µM [falling, single point]	20.6 µM [falling, partial curve, poor fit]
Cc1ccc(-c2noc(CSc3nc(N)cc(N)n3)n2)cc1			1.64 µM [rising, partial curve, poor fit]
Cc1noc(C)c1C(=O)OCC(=O)Nc1cc(Cl)ccc1Oc1ccccc1		29.1 µM [rising, single point]	
C=C(C)CN(CC)C(=O)CSc1ccc(S(=O)(=O)N2CCN(C)CC2)cn1	-15.2		
CC(C)c1ccc(NC(=O)N2CCN(S(=O)(=O)c3ccccc3)CC2)cc1	-46.6	16.4 µM [falling, partial curve]	20.6 µM [falling, single point]
O=C(NNC(=O)c1ccccc1-n1cccc1)c1ccc(Cl)c(Cl)c1	-6.65	0.0651 µM [rising, full curve, poor fit]	
CC[C@H](C)C(C(=O)N1CCN(C(=O)OC(C)(C)C)CC1)n1cc(C(CO)NC(=O)OC(C)(C)C)nn1 (stereo not given in full)	-7.35	0.0461 µM [falling, full curve, poor fit]	
NC1=NC(=O)C(Cc2ccc(Br)cc2)S1 (stereo not given)	1.13	29.1 µM [rising, single point]	
O=c1cc(-c2ccccc2)nc(SCc2ccc(Cl)cc2)[nH]1	25.4	29.1 µM [rising, single point]	

Rewritten as a markdown table: entries from further up.

| SMILES | cell number change [%] | AC50 [1] | AC50 [2] |
| --- | --- | --- | --- |
| CC(C)c1ccc(NC(=O)c2cccc(NC3=NC4CS(=O)(=O)CC4S3)c2)cc1 (stereo not given) | -8.36 | 29.1 µM [falling, single point] |  |
| Cc1ccc(C(=O)Nc2scc(-c3ccccc3)c2C(=O)O)o1 | 20.6 | 0.517 µM [falling, full curve] | 6.51 µM [rising, single point] |
| Cn1cccc1Cc1nnc(SCC(=O)Nc2ccc3c(c2)OCO3)n1-c1ccc(F)cc1 | -2.99 |  |  |
